{
  "source": "PubChem BioAssay AID504467",
  "about": "(National Center for Advancing Translational Sciences (NCATS), 2011)",
  "note": "Out of some 330,000 compounds screened, about 7,700 (2.3%) were called active. The inconclusive results got no clear call from the source; some entries with a clear call stand among them for comparison. The call rests on the fitted dose curve; in most records, active means well fitted inhibition curve with a large enough effect; inconclusive means small, poorly fitted or top-dose-only effect, or effect the other way; inactive means flat fitted curve, though single readings scatter. Where the call is inconclusive, the potency comes from a doubtful curve fit. On the % scale 0 is the no-effect control and ±100 the full control effect; potency means the concentration at half of the fitted maximal effect.",
  "data": [
    {"experiment": "qHTS screen for small molecules that inhibit ELG1-dependent DNA repair in human embryonic kidney (HEK293T) cells expressing luciferase-tagged ELG1; further: nearly all actives have a fitted effect of over 55% in size", "details": "HEK293T ELG1-luciferase reporter, luminescence, 16 h, DNA damage induced by 5-fluorouridine; activity change, negative = inhibition: at 46.1 µM (top of the series)", "procedure,_shortened": "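Luminescence from the luciferase reporter, measured 30 min after ONE-Glo reagent at room temperature, was the read-out. Beforehand, 2,000 cells per well were exposed for 16 hr at 37 °C to 5-fluorouridine together with compound or vehicle.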", "values": [
      {"smiles": "CN(C(=O)COC(=O)CSc1ccc([N+](=O)[O-])cc1)c1ccccc1", "activity change, negative = inhibition": "inactive: 8.31%"},
      {"smiles": "CC1CCN(C(=O)Cn2nnc(-c3ccccc3)n2)CC1", "Potency": "inconclusive: 17.8 µM [activator, single point]"},
      {"smiles": "CCN(Cc1ccccc1)S(=O)(=O)c1ccc(C(=O)N(CCCN(C)C)c2nc3cc4c(cc3s2)OCCO4)cc1", "activity change, negative = inhibition": "inactive: -11.4%"},
      {"smiles": "CCc1nc(CN(C)C(=O)C2CCC(=O)N(CCc3cccc(F)c3)C2)no1", "note": "(stereo not given)", "Potency": "inconclusive: 29.1 µM [activator, single point]"},
      {"smiles": "CSc1ccc(S(=O)(=O)N2CCC(C(=O)NCCN3CCOCC3)CC2)cc1", "activity change, negative = inhibition": "inactive: 2.89%"},
      {"smiles": "Clc1ccc(Cn2ncc3c(N4CCCCC4)ncnc32)cc1", "Potency": "inconclusive: 29.1 µM [inhibitor, single point]"},
      {"smiles": "CCn1c(CNC(=O)C2CCCCC2)cc2cc(C)ccc21", "activity change, negative = inhibition": "inactive: 3.36%"},
      {"smiles": "CC(=O)N1C=Cc2c(c(C)c3c([nH]c4ccccc43)c2C)C1", "activity change, negative = inhibition": "inactive: -2.28%"},
      {"smiles": "CC1CN(CN2C(=O)c3ccccc3C2=O)CC(C)O1", "note": "(stereo not given)", "activity change, negative = inhibition": "inactive: 18.8%"},
      {"smiles": "O=C(Nc1cc2c(cc1Br)OCCCO2)c1cccnc1", "Potency": "inconclusive: 25.9 µM [activator, single point]"},
      {"smiles": "N#CCc1ccc(NC(=O)/C=C/c2ccc([N+](=O)[O-])o2)cc1", "Potency": "inconclusive: 23.1 µM [inhibitor, single point]"},
      {"smiles": "COc1ccccc1C(=O)NCC(=O)NCCCN1CCOCC1", "activity change, negative = inhibition": "inactive: 11.2%"},
      {"smiles": "Cc1nc(SCC(=O)NC(C)(C#N)C2CC2)c2c(-c3cccs3)csc2n1", "note": "(stereo not given)", "Potency": "inconclusive: 18.4 µM [inhibitor, partial curve, poor fit]"},
      {"smiles": "Cc1ccc(NC(=O)COc2ccc3c(c2)OCO3)c(C)c1", "Potency": "inconclusive: 23.1 µM [activator, single point]"},
      {"smiles": "CCN(CC)C(=O)CSc1nnc(C2CCCCC2)o1", "Potency": "inconclusive: 20 µM [activator, single point]"},
      {"smiles": "O=C(COC(=O)c1ccc(S(=O)(=O)NCc2ccco2)cc1)NC1CCCCCC1", "Potency": "inconclusive: 23.1 µM [activator, partial curve, poor fit]"},
      {"smiles": "CC1(C)OC2C(CO)OC(n3cnc4c(=S)nc[nH]c43)C2O1", "note": "(stereo not given)", "Potency": "inconclusive: 20.6 µM [inhibitor, partial curve, poor fit]"},
      {"smiles": "Cc1ccc(NC(=O)c2cc(C(C)(C)C)nn2Cc2ccccc2)cc1", "Potency": "inconclusive: 0.58 µM [inhibitor, partial curve]"},
      {"smiles": "COCCNC(=O)CN1CCCCCC1", "activity change, negative = inhibition": "inactive: -1.77%"},
      {"smiles": "COc1ccc(N2C(=O)CN(Cc3cc(OC)c(OC)c(OC)c3)C2=S)cc1", "Potency": "inconclusive: 20.6 µM [inhibitor, single point]"},
      {"smiles": "Cn1nnnc1Sc1ncnc2scc(Br)c12", "Potency": "inconclusive: 11.6 µM [inhibitor, partial curve]"},
      {"smiles": "CCN(CC)c1ccc(NC(=O)C(C)C)cc1", "Potency": "inconclusive: 16.4 µM [activator, partial curve, poor fit]"},
      {"smiles": "CC(=O)c1ccc(S(=O)(=O)Nc2cccc(-c3ccc(N4CCOCC4)nn3)c2)cc1", "Potency": "inconclusive: 23.1 µM [activator, partial curve]"},
      {"smiles": "CC(C)NC(=O)c1ccc(CN2CCC(Cc3ccccc3)CC2)cc1", "activity change, negative = inhibition": "inactive: -23.8%"},
      {"smiles": "Cn1c(=O)cc(OCC(=O)N2CCC(N3CCCCC3)CC2)c2ccccc21", "Potency": "inconclusive: 18.4 µM [activator, partial curve]"},
      {"smiles": "Cc1ccc(Nc2nc(N)nc(CN3CCN(c4ccccc4F)CC3)n2)cc1", "Potency": "inconclusive: 20.6 µM [inhibitor, single point]"},
      {"smiles": "COc1ccc(NS(=O)(=O)c2ccc3oc4ccccc4c3c2)cn1", "Potency": "inconclusive: 18.4 µM [inhibitor, single point]"},
      {"smiles": "CC(=O)Nc1sc(/C(C#N)=C\\c2cccc(Cl)c2)nc1-c1ccc(C)cc1", "Potency": "inconclusive: 32.6 µM [inhibitor, single point]"},
      {"smiles": "C/C(=N\\NC(=O)c1cccc([N+](=O)[O-])c1)c1cccs1", "Potency": "inconclusive: 18.3 µM [activator, partial curve]"},
      {"smiles": "Cc1ccc(NC(=O)[C@@H]2CCCN2S(=O)(=O)c2ccccc2C(F)(F)F)cc1S(=O)(=O)N1CCOCC1", "Potency": "inconclusive: 29.1 µM [inhibitor, single point]"},
      {"smiles": "Nc1ccc(C(=O)CC(=O)Nc2ccc(Cl)cc2)cc1", "activity change, negative = inhibition": "inactive: 7.24%"},
      {"smiles": "Cc1ccc(CS(=O)(=O)c2ncn[nH]2)cc1", "activity change, negative = inhibition": "inactive: 8.68%"},
      {"smiles": "COc1cc(C(=O)Nc2nc(-c3cccs3)cs2)cc(OC)c1OC", "Potency": "active: 13 µM"},
      {"smiles": "O=C(NCC1CCCO1)C(c1cccnc1)N(C(=O)Cc1cccs1)c1ccccc1", "note": "(stereo not given)", "Potency": "inconclusive: 20.6 µM [activator, single point]"},
      {"smiles": "N#Cc1c(NC(=O)c2cnn3cccnc23)sc2c1CCCC2", "Potency": "inconclusive: 6.51 µM [activator, partial curve]"},
      {"smiles": "COc1cccc(CNC(=O)c2cc3c(C)nc4ccccc4c3o2)c1", "Potency": "inconclusive: 23.1 µM [inhibitor, single point]"},
      {"smiles": "COc1ccc(NS(=O)(=O)c2cccc(NC(=O)c3cnccn3)c2)cc1Br", "Potency": "active: 18.3 µM"},
      {"smiles": "CCCCOC(=O)Cn1c(=O)c2c(nc(Br)n2Cc2ccccc2)n(C)c1=O", "Potency": "inconclusive: 22.4 µM [inhibitor, single point]"},
      {"smiles": "CCCCOc1ccc(C(=O)OCC(=O)N2CCOCC2)cc1", "activity change, negative = inhibition": "inactive: 8.36%"},
      {"smiles": "CCOc1ccccc1-c1nc(C(N)=O)c2[nH]c(=O)n(-c3cccc(C)c3)c2n1", "Potency": "inconclusive: 32.6 µM [inhibitor, partial curve, poor fit]"},
      {"smiles": "Cc1nn(C)c(C)c1CN(C)C(=O)c1cnn2c1NC(c1ccccc1)CC2C(F)(F)F", "note": "(stereo not given)", "Potency": "inconclusive: 20.6 µM [inhibitor, partial curve]"},
      {"smiles": "CCOC(=O)c1ccccc1NC(=O)CSc1nnc(COc2ccccc2C)n1C", "Potency": "inconclusive: 23.1 µM [inhibitor, partial curve]"},
      {"smiles": "O=C(N/N=C/c1ccncc1)c1cc2ccccc2o1", "activity change, negative = inhibition": "inactive: -0.174%"},
      {"smiles": "Cc1nc2c(-c3ccc(Cl)cc3)c(C)[nH]n2c(=O)c1Cc1ccccc1", "Potency": "active: 4.11 µM"},
      {"smiles": "O=C(O)/C=C/c1cccc(OCc2ccccc2)c1", "Potency": "inconclusive: 29.1 µM [activator, single point]"},
      {"smiles": "COc1ccc(C(C)=O)cc1CSc1nc2ccccc2c(=O)n1-c1cccc(C)c1", "Potency": "inconclusive: 29.1 µM [inhibitor, single point]"},
      {"smiles": "CC1=C(CC(=O)c2ccc(Cl)cc2)C(=O)c2ccccc2C1=O", "Potency": "inconclusive: 20.6 µM [activator, partial curve]"},
      {"smiles": "Cc1ccc(C(=O)Nc2cc(Cl)ccc2OC(=O)c2ccc(C)cc2)cc1", "Potency": "inconclusive: 4.61 µM [activator, full curve]"},
      {"smiles": "Cc1nc2c(-c3ccc(F)cc3)cnn2c(N)c1-c1ccccc1", "Potency": "inconclusive: 0.73 µM [activator, full curve]"},
      {"smiles": "CCn1c(=O)cc(SCC(=O)Nc2ccc(Cl)cc2)c2ccccc21", "Potency": "inconclusive: 29.1 µM [inhibitor, single point]"},
      {"smiles": "CCN(CC)c1ccc(/C=N/NC(=O)c2ccoc2C)cc1", "Potency": "inconclusive: 1.03 µM [activator, partial curve]"},
      {"smiles": "Cc1ccc(F)c(NC(=O)c2ccc(Cn3cc(Cl)cn3)cc2)c1", "Potency": "inconclusive: 1.64 µM [activator, partial curve, poor fit]"},
      {"smiles": "Cc1cccc(NC(=O)C(Cc2ccccc2)n2cccc2)c1", "note": "(stereo not given)", "Potency": "inconclusive: 18.3 µM [inhibitor, partial curve, poor fit]"},
      {"smiles": "CC(OC(=O)C1=COCCO1)C(=O)c1ccc(C(C)(C)C)cc1", "note": "(stereo not given)", "activity change, negative = inhibition": "inactive: 8.18%"},
      {"smiles": "CCN1CCCC1CNC(=O)CSc1cc(=O)n(C)c2cc(Cl)ccc12", "note": "(stereo not given)", "Potency": "inconclusive: 14.6 µM [activator, partial curve, poor fit]"},
      {"smiles": "Nn1c(SCC(=O)NC(=O)Nc2ccc3c(c2)OCCO3)nnc1C1CC1", "Potency": "inconclusive: 14.6 µM [activator, partial curve]"},
      {"smiles": "CC(/C=C/C(=O)c1ccc(C)cc1)=C\\c1ccccc1", "Potency": "inconclusive: 29.1 µM [activator, single point]"},
      {"smiles": "COc1ccc(/C=C/C(=O)N(C)Cc2cccs2)cc1S(=O)(=O)N1CCOCC1", "activity change, negative = inhibition": "inactive: -17.7%"},
      {"smiles": "CN1/C(=C\\C=N\\NC(=O)c2ccc(O)cc2)C(C)(C)c2ccccc21", "Potency": "inconclusive: 20.6 µM [inhibitor, single point]"},
      {"smiles": "CCCCN1C(=S)NC[C@@H]1Cc1cccc2ccccc12", "activity change, negative = inhibition": "inactive: 25%"},
      {"smiles": "COCCNC(=O)c1cnn2c(C(F)F)cc(-c3ccccc3)nc12", "Potency": "inconclusive: 18.3 µM [inhibitor, partial curve]"},
      {"smiles": "FC(F)(F)c1ccc(N2CCN(c3ncnc4c3nnn4Cc3ccccc3Cl)CC2)cc1", "Potency": "inconclusive: 1.64 µM [inhibitor, partial curve, poor fit]"},
      {"smiles": "CCOC(=O)C1CCN(S(=O)(=O)c2cc(C(=O)N3CCCCC3)ccc2OC)CC1", "activity change, negative = inhibition": "inactive: -13.2%"},
      {"smiles": "CSc1ccc(/C=N/n2c(C)nc3ccccc3c2=O)cc1", "Potency": "inconclusive: 29.1 µM [activator, single point]"},
      {"smiles": "COc1ccccc1NS(=O)(=O)c1ccc(C)c(C(=O)NCc2cccnc2)c1", "activity change, negative = inhibition": "inactive: 13%"},
      {"smiles": "Cn1c(SCC(=O)N2c3ccccc3CCc3ccccc32)nnc1-c1cc2ccccc2cc1O", "activity change, negative = inhibition": "inactive: -40.2%"},
      {"smiles": "Cc1c(C(=S)NC(=O)C2CC2)c(=O)n(-c2ccccc2)n1C", "Potency": "inconclusive: 29.1 µM [inhibitor, single point]"},
      {"smiles": "COCCn1c(-c2ccc(Br)cc2)nc2oc3cc(OC)ccc3c(=O)c2c1=O", "activity change, negative = inhibition": "inactive: -14.3%"},
      {"smiles": "COc1cccc(NC(=O)CSc2nc3ccccc3cc2Cc2ccccc2)c1", "Potency": "inconclusive: 7.31 µM [inhibitor, partial curve]"},
      {"smiles": "Cn1c(=O)[nH]c(=O)c2c1nc(SCCN1CCCCC1)n2CCCc1ccccc1", "activity change, negative = inhibition": "inactive: -25.5%"}
    ]}
  ]
}
